Structures are written as SMILES.

The results in this text go back to patent EP0788796A1, “URICOSURIC AGENT” (priority 1995, dated 1997).

This experiment is described as follows: Uric acid excreting and diuretic actions in rats. The format is in vivo, Wistar rats. As for the experimental part:
Three female Wistar rats (4-week old) in each group were administered orally with 300 or 1000 mg/kg of a test compound in a volume of 10 ml/kg as suspended in an aqueous solution of 0.5% carboxymethylcellulose sodium or 5% gum arabic; immediately thereafter, the animals were loaded orally with 25 ml/kg of physiological saline and the urine was collected up to 5 h after the administration of the test compound. The collected urine was immediately measured quantitatively and the urinary concentration of uric acid was measured by a urikase method in accordance with the procedure of Kabasakalian et al. [Kabasakalian, P. et al.: Clin Chem., 19, 522-524 (1973)] and the urinary excretion of uric acid was calculated. As control drugs, probenecid (300 or 1000 mg/kg) and furosemide (30 mg/kg) were used. Data on the individual groups are shown in Table 1 in relative values, with 100 being assigned to each of the volume of urine and the urinary excretion of uric acid in a control group which was administered with an aqueous solution of 0.5% carboxymethylcellulose sodium or 5% gum arabic in place of the solution of a test compound.

Turning to `NS(=O)(=O)c1cc(C(=O)O)c(NCc2ccco2)cc1Cl` [Furosemide, furosemide, reference compound], where the note is “Rattus norvegicus, 30 mg/kg oral, female Wistar rats, urine collected up to 5 h, relative value with control = 100, read-out: Urinary excretion of uric acid (%)”, the response vs control in vivo at 30 mg/kg stood at 106%. Besides, the “urinary excretion of uric acid” value (result in words, summary of Table 1) is recorded as “no increase was observed in the uric acid excretion”.
